We go through 18 compounds from PubChem BioAssay AID445 (National Center for Advancing Translational Sciences (NCATS), 2006).

The assay is described as follows: IkB Signaling. The conditions noted are these: ABC-DLBCL IkBa-CBG/CBR dual luciferase ratio (green luciferase fused to IkBa over red control in OCI-Ly3 lymphoma cells), 4 h. In outline:
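In this assay, an IκBα–CBG68 fusion accumulates when IKK-driven degradation is blocked; native CBR normalizes for cell number. OCI-Ly3 cells were treated 4 h with compound and doxycycline, then green and red light read after Chroma-Glo addition.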

Where [1] appears, read: measured here: control luc red channel unless noted.

The list shows a part of the results. These are further read-outs of the screen, such as a control signal, another cell line or another target. No call is given for them. Most of these compounds were active or inconclusive in the main read-out, so they are no random draw. Potencies come from curve fits of mixed quality, noted in brackets.

What is called AC50 is the concentration at which the activity in the assay is half-maximal. As to `COc1ccc(NC(=O)c2cc(S(=O)(=O)N3CCOCC3)ccc2OC)cc1`, the AC50 under setting [1] was 0.126 µM [falling, full curve, poor fit]. The same measure, in the same setting: with `Oc1ccc(Cl)cc1Cc1cc(Cl)ccc1O` the figure was 3.16 µM [falling, full curve]; with `COc1ccc(-c2onc(C)c2C)cc1S(=O)(=O)Nc1cccc(C#N)c1`, 3.16 µM [falling, single point]; with `O=C(NCCc1ccc(Cl)cc1)c1ccc2c(c1)nc1n2CCOC1`, 39.8 µM [falling, single point].

Regarding `CC(=O)C1=C(c2ccc(F)cc2)N(C(C)=O)n2c(nnc2C2CCCCC2)S1`, the AC50 under setting [1] is 6.31 µM [falling, full curve].

`CCOc1ccc(C(=O)NCC(c2ccc(Cl)cc2)N2CCCCC2)cc1` (centres undefined): the half-maximal activity concentration (AC50) under setting [1] was 31.6 µM [falling, partial curve]. Turning to `COc1ccc(CN(C(=O)c2ccco2)c2ccc(Br)cc2)cc1OC`, the AC50 under setting [1] is 39.8 µM [falling, single point]. On the same count and under the same terms, the same measure for `O=C(Cn1ncc2c3ccccc3n(Cc3cccc(Cl)c3)c2c1=O)NCCCN1CCCCC1`: 39.8 µM [falling, single point]; for `Cc1ccc(NC(=O)CSc2nc(-c3cccs3)nc3cc(=O)[nH]n23)cc1C`: 31.6 µM [falling, single point]; for `Cc1ccc(C)c(N2CCN(C(=O)C3CCN(c4nc(C)cc(C)n4)CC3)CC2)c1`: 12.6 µM [falling, partial curve]. The same measure, in the same setting: the same measure for `COC(=O)c1cc(CSc2nc3ccc(C)cc3[nH]2)oc1C`: 3.98 µM [falling, partial curve]; for `O=C(NCCc1ccccc1)C1CCN(Cc2cc3ccccc3n2Cc2ccccc2)CC1`: 20 µM [falling, partial curve]. As for `COc1ccc(-c2cn3cccnc3n2)cc1NC(=O)Nc1cc(C)ccc1C`, the AC50 was 31.6 µM [rising, partial curve] (measured here: IkB-luc green channel) and 31.6 µM [rising, partial curve] (measured here: control luc red channel). Regarding `CCOc1ccc(-c2cc(C(=O)NC(C)c3ccccc3)c3ccccc3n2)cc1` (centres undefined), the AC50 under setting [1] is 2 µM [falling, full curve]. As to `CCOc1ccc(N2CC(=O)SC2=S)cc1`, the AC50 under setting [1] is 25.1 µM [falling, single point]. Same read-out and setting: with `O=C(Nc1ccc(C(=O)N2CCN(c3ccccc3F)CC2)cc1)c1nsc2ccccc12` the figure was 0.158 µM [falling, full curve]. The same measure, in the same setting: with `CCN1CSC(=S)N(Cc2ccc(OC)cc2)C1` the figure was 39.8 µM [falling, single point]; with `CCOC(=O)c1ccccc1NC(=O)CSc1nnc(Cc2cccn2C)n1-c1ccc(F)cc1`, 15.8 µM [falling, partial curve].
